Source: patent US20210183469A9, “COMPUTATIONAL PLATFORM FOR IN SILICO COMBINATORIAL SEQUENCE SPACE EXPLORATION AND ARTIFICIAL EVOLUTION OF PEPTIDES” (priority 2018, published 2021)
At least one peptide structure holds a part that was inferred or is arguable (an end, a ring closure or a residue). Some results were stated once for a whole list of compounds, not compound by compound. No end group written: not given here.

Tests used:
[1] = test system: bioluminescent engineered P. aeruginosa strain H1001; assay: Antimicrobial activity by bioluminescence assay (SPOT-synthesized peptides); type: cell-based, Pseudomonas aeruginosa; conditions: SPOT-synthesized unpurified crude peptide (~70% purity)
Description: A peptide array composed of 20 peptides (15 guavanins, 4 Pg-AMP1 fragments and magainin 2) was designed and synthesized by Kinexus Bioinformatics Corporation (Vancouver, BC). Peptides were produced in a standard mass of 80 μg by using cellulose support in SPOT technology, as previously described by Winkler et al. Methods Mol. Biol. 2009; 570: 157-74. The crude synthetic peptides were obtained from cellulose membrane discs that had already been treated with ammonia gas to release the peptides from the membrane. Peptides were then dissolved overnight in distilled water and subsequently evaluated for their biological activities, as described below.
The antimicrobial activity of the synthesized peptides was evaluated against an engineered luminescent Pseudomonas aeruginosa H1001 strain in 96-well microplates, as described previously with a few modifications (Hilpert & Hancock, Nat. Protoc. 2007; 2(7): 1652-60). Aqueous solutions of peptides released from the cellulose spots were diluted two-fold in BM2 medium [62 mM potassium phosphate buffer pH 7; 2 mM MgSO4; 10 μM FeSO4; 0.4% (wt/vol) glucose] down the 8 wells of a 96 well plate, achieving a final volume of 25 μL in each well. Subsequently, 50 μL of overnight culture of P. aeruginosa H1001 (fliC::luxCDABE) were subcultured in 5 mL of fresh LB media and grown until they reached an OD600 of 0.4. This growing bacteria culture was then diluted 4:100 (v/v) into fresh BM2 media and 25 μL of this diluted bacterial culture was transferred to the microplate wells containing 25 μL of peptide solution. The final peptide concentrations tested ranged from 200 to 3 μg·mL^−1. The plates were incubated for 4 h at 37° C. with constant shaking at 50 rpm. Luminescence was measured on a Tecan […]luor Plus Microplate Reader (Tecan US, Morrisville, N.C.). The antimicrobial activity was evaluated by the ability of the peptides to reduce the luminescence of P. aeruginosa-lux strain compared to untreated cells. The AMP magainin 2 and the carbapenem meropenem were used as positive controls and distilled water was used as a negative control.

[2] = test system: P. aeruginosa strain PAO1; assay: Scarification (abscess) skin infection mouse model; type: in vivo; conditions: mice

Q: For RRYMECYEQAERYFRRFGRR-NH2 [Guavanin 13], which MIC [1] is on record?
A: Its MIC is less than 100 µg/mL.

Q: How did the “anti-infective activity / bacterial load” value ([2]; higher concentrations (25 and 100 μg mL^−1), 4 days post-infection) turn out when RYGYGGYGGGRYGGGYGSGR-NH2 [Fragment 2] was run?
A: The value was “significant reduction of bacterial load”.

Q: RQYMRQIEQALRYGYRISRR-NH2 [Guavanin 2] was tested. Which MIC [1] did it give?
A: The MIC was less than 100 µg/mL.

Q: What about the “reduction in bacterial counts” value ([2]; single dose 24 hours after infection, after 4 days, lowest dose tested of 6.25 kg mL^−1) of the same substance?
A: Its value is 3 log.

Q: RSFMKCYEQASRYGNRILRR-NH2 [Guavanin 14] was tested. Which MIC [1] did it give?
A: The MIC was less than 100 µg/mL.

Q: Which MIC [1] does the source give for RKLMELYEQAIRYGKRSYRR-NH2 [Guavanin 12] here?
A: The MIC was less than 100 µg/mL.
